From article PMC7086355
No constants are given. Whether binding was seen depends on the method and setting. In cells and extracts the contact can be indirect. Some entries that bind do so weakly or less than the wild type. For some of these results: Tags and fused reporters may be left off the sequences shown. One block for each binder: values may come before it.

The chains behind the UniProt entries cited, without tags or fusion partners.
UniProt Q99104: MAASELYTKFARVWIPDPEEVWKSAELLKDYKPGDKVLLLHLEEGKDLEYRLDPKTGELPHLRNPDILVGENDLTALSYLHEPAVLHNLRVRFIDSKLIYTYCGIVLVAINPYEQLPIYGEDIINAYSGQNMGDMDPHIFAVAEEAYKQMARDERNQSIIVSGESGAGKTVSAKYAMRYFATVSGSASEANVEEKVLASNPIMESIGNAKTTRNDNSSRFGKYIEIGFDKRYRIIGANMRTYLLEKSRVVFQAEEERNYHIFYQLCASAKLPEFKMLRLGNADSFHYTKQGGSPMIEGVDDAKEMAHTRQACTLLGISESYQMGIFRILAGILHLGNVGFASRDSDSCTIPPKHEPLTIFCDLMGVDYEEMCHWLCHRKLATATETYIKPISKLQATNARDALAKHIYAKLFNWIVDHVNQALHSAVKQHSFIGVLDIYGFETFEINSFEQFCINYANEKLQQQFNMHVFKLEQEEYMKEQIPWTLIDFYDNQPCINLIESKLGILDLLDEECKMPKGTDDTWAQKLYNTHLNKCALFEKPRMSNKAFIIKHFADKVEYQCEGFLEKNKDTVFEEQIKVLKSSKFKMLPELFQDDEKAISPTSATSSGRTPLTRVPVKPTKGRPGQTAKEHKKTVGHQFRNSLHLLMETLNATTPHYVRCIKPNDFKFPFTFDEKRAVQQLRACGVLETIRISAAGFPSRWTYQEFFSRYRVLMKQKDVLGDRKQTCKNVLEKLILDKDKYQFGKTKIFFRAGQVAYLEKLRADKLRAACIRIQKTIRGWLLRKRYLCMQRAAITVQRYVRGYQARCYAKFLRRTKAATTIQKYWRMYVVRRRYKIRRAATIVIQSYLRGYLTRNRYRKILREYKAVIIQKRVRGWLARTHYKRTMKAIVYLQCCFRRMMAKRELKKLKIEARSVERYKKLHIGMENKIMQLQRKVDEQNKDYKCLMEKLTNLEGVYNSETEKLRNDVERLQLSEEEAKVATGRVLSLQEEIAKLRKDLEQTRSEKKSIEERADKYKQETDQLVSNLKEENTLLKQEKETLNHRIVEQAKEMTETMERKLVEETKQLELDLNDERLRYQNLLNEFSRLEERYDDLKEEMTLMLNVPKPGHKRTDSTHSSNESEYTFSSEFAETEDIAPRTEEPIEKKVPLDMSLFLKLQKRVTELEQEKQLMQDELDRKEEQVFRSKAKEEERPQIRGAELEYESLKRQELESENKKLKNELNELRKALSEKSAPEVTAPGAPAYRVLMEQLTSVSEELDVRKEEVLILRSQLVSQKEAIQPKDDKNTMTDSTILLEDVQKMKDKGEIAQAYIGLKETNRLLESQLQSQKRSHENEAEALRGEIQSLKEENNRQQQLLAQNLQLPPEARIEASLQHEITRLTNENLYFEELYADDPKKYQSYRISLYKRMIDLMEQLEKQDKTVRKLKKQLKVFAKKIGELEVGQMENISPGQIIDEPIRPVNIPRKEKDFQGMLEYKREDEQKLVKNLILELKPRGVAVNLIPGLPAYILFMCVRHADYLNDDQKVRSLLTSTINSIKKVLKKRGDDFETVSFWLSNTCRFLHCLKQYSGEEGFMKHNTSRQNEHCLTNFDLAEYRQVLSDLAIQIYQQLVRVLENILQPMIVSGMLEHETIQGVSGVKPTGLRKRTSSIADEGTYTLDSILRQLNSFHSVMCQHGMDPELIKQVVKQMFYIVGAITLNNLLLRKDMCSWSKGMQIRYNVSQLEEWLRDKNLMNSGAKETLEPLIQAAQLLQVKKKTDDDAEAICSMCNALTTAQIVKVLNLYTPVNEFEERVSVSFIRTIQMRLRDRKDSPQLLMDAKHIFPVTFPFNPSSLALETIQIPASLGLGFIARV

Key:
[1] = biological target: T1, 6xHis-PHB expressed in COS7 cells (mouse) (UniProt P67778); assay: co-IP; COS7 monkey kidney cells transfected with PHB and Mlph plasmids; anti-histidine IP for 3 h at 4 °C, western blot
T1 sequence: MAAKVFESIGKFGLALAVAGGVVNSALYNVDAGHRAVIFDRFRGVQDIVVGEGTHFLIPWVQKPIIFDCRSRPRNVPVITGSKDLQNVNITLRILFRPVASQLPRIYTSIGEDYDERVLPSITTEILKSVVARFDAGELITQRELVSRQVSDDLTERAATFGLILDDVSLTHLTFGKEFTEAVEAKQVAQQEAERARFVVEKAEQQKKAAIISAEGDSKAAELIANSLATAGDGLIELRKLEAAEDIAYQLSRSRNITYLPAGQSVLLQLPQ

[2] = biological target: T2, transmembrane domain of PHB (amino acids 1-40), 6x histidine tagged (mouse) (UniProt P67778); assay: pull-down; purified His-tagged PHB (wild type or domain) mixed with whole cell extracts of Mlph- or Rab27a-transfected COS7 cells; poly-histidine antibody at 4 °C overnight, then protein A plus agarose beads 1 h at 4 °C; western blot; only the target purified
T2 sequence: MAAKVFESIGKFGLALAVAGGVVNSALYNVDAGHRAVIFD

[3] = biological target: T3, Melanophilin (mouse (endogenous in Melan-a)) (UniProt Q91V27); assay: proximity ligation; Duolink in situ PLA on fixed Melan-a melanocytes, primary antibodies 1:50 overnight 4 °C, anti-rabbit plus and anti-mouse minus probes, fluorescence microscopy
T3 sequence: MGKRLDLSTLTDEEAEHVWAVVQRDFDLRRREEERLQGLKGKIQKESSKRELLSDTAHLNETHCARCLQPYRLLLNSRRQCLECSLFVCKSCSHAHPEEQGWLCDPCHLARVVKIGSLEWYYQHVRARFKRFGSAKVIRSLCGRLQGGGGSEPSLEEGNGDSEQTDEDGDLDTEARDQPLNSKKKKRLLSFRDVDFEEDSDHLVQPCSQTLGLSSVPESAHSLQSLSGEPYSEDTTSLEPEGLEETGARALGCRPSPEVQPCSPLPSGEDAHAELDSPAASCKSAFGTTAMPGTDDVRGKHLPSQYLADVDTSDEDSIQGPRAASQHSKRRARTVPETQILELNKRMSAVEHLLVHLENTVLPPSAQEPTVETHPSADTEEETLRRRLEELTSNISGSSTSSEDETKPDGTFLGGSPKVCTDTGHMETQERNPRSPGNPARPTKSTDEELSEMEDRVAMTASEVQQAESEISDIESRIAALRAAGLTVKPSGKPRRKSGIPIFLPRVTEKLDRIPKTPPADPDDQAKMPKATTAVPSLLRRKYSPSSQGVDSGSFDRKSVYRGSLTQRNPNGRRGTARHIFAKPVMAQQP

[4] = biological target: Myosin-Va (mouse (endogenous in Melan-a)) (UniProt Q99104); assay: as above
[5] = biological target: T4, Rab27a (mouse (endogenous in Melan-a)) (UniProt Q9ERI2); assay: as above
T4 sequence: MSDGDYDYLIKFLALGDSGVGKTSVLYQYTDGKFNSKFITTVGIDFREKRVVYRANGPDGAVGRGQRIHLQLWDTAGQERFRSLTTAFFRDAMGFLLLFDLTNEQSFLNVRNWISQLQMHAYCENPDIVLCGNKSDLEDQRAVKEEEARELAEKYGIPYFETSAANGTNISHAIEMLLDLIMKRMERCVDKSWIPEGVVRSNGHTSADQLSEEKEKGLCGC

[6] = biological target: T4, Rab27a (mouse (endogenous in Melan-a)); assay: co-IP; whole cell lysates of Melan-a melanocytes, endogenous proteins; specific antibodies on protein A plus agarose beads, 4 °C overnight, western blot; control cells and cells with siMlph (20 nM, 72 h), Leaden (Mlph mutant) cells, Rab3GEP siRNA (50 nM), siPHB (20 nM)
[7] = biological target: T5, prohibitin domain of PHB (amino acids 41-173), 6x histidine tagged (mouse) (UniProt P67778); assay: pull-down; purified His-tagged PHB (wild type or domain) mixed with whole cell extracts of Mlph- or Rab27a-transfected COS7 cells; poly-histidine antibody at 4 °C overnight, then protein A plus agarose beads 1 h at 4 °C; western blot; only the target purified
T5 sequence: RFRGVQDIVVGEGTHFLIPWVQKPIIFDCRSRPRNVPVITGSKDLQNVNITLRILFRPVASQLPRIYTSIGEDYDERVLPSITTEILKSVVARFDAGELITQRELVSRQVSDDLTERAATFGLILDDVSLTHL

- binding [1]: binds
- binding [2]: binds
B1: T7-Mlph (protein, UniProt Q91V27 1-590)
chain: T3 sequence

- binding [3]: binds
- binding [4]: no binding
- binding [5]: binds
- binding [6]: binds
B2: Prohibitin (protein, UniProt P67778 1-272)
chain: T1 sequence

- binding [7]: binds
B3: FLAG-Rab27a (protein, UniProt Q9ERI2 1-221)
chain: T4 sequence
